± gives the standard deviation of the averaged measurements. Some of the results follow.
Compound: Nc1nc2c(ncn2[C@@H]2O[C@H](COP(=O)(O)OP(=O)(O)OP(=O)(O)O)[C@@H](O)[C@H]2O)c(=O)[nH]1 [guanosine triphosphate]
Assay: NP40-soluble protein abundance relative to vehicle (solubility fold change) (ratio); higher = more soluble protein in presence of GTP
How it was run: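 Across three independent experiments, values are fold changes against the detergent-processed vehicle for each replicate, based on vsn-normalised intensities. The samples were Jurkat crude lysate treated with eight concentrations (0.1 to 10 mM) for 10 min at room temperature and then 3 min at 37 °C. Lysate was solubilised with 0.8% NP40 and benzonase, ultracentrifuged, and the supernatant analysed by TMT-labelled LC-MS/MS.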

The chains behind the UniProt entries cited, without tags or fusion partners. Where a name states a change or a piece, a line headed by the entry shows the natural chain unless it says otherwise.
UniProt Q96HE7: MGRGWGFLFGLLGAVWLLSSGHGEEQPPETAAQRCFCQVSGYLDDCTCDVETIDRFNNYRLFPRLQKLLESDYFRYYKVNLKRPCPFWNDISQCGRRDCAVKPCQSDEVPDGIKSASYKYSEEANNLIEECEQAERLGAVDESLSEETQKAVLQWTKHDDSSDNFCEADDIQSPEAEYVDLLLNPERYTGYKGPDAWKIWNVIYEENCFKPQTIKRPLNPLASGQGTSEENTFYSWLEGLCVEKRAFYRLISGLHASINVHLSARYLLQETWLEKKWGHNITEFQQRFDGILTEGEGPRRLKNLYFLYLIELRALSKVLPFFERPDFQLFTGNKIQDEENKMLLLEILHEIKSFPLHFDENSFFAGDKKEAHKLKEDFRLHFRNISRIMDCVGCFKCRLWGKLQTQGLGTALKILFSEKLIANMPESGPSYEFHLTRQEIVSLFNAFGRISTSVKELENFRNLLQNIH
UniProt Q969H8: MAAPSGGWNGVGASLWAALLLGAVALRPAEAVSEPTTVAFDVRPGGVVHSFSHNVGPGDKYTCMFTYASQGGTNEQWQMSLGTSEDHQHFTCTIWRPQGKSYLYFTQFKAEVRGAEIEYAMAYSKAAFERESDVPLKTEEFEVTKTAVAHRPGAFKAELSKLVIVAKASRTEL
UniProt Q92793, whole entry, looked up: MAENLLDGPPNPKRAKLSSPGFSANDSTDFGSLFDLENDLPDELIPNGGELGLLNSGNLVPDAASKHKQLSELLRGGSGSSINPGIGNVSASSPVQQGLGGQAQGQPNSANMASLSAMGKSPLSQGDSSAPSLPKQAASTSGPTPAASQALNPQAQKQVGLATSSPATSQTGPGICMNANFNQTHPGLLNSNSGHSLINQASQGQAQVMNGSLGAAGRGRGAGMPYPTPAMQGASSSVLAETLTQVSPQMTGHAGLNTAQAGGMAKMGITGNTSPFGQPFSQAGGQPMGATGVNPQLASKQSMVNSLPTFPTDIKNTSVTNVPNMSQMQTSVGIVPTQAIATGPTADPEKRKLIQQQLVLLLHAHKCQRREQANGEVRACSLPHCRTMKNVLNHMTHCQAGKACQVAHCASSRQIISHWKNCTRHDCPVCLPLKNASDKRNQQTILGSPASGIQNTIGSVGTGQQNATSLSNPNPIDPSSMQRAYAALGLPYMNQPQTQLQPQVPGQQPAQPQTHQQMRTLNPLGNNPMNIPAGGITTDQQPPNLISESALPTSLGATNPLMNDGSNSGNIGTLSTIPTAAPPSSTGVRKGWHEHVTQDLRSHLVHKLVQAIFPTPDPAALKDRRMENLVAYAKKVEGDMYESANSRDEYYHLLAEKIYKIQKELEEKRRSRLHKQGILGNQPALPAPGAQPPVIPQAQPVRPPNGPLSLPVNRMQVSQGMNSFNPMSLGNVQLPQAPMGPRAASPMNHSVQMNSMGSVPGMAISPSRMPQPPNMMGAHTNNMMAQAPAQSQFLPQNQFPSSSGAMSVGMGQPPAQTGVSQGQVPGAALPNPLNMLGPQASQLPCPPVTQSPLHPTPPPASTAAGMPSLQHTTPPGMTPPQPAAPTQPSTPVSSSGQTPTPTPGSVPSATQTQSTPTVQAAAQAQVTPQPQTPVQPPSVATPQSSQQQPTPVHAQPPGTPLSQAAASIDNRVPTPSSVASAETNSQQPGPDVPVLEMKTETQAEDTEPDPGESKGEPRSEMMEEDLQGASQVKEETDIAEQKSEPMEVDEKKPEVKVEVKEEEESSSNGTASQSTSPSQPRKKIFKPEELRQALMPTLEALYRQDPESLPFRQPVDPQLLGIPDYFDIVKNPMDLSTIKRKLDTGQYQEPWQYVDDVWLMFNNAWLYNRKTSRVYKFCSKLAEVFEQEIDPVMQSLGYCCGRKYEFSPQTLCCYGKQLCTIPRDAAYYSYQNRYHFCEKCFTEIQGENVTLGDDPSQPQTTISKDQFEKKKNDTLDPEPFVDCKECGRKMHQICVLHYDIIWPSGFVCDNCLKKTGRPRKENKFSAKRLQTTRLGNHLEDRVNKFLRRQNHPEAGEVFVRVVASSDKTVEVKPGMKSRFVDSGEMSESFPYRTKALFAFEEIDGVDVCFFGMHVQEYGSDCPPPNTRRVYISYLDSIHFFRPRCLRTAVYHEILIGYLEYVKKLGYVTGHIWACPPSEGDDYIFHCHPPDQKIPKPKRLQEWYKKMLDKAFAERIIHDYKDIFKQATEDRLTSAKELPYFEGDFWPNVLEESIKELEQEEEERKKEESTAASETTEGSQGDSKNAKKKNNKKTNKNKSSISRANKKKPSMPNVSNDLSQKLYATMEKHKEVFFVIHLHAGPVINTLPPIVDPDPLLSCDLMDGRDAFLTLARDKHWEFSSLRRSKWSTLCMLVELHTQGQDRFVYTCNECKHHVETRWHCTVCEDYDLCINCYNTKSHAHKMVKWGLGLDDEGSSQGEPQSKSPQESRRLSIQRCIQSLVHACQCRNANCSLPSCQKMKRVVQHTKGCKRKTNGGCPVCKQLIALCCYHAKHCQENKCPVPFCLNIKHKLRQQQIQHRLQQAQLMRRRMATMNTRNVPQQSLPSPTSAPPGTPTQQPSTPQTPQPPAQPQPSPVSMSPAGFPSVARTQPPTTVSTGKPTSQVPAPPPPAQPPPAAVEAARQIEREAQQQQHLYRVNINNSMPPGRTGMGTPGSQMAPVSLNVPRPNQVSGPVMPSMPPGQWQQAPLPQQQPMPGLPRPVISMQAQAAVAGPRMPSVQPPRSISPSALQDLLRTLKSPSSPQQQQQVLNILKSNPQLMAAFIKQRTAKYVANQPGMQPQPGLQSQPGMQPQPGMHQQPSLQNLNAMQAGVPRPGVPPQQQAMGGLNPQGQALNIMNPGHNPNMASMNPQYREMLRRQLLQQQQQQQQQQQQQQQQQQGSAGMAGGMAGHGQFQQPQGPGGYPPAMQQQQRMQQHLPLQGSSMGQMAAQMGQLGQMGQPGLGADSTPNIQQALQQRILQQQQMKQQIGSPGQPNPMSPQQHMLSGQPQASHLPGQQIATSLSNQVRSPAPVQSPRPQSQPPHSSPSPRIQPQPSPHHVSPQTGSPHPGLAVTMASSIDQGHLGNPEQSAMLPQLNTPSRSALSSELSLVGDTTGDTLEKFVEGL
UniProt Q96C86: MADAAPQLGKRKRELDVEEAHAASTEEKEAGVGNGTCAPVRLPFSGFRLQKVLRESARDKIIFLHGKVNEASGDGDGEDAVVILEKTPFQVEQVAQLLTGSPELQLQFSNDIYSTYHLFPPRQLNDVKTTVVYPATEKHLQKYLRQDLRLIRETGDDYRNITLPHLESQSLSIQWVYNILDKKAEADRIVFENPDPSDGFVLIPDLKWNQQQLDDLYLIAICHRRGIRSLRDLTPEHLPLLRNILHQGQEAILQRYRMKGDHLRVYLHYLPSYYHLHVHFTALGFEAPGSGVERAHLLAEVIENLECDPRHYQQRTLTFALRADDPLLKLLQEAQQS
UniProt Q969N2: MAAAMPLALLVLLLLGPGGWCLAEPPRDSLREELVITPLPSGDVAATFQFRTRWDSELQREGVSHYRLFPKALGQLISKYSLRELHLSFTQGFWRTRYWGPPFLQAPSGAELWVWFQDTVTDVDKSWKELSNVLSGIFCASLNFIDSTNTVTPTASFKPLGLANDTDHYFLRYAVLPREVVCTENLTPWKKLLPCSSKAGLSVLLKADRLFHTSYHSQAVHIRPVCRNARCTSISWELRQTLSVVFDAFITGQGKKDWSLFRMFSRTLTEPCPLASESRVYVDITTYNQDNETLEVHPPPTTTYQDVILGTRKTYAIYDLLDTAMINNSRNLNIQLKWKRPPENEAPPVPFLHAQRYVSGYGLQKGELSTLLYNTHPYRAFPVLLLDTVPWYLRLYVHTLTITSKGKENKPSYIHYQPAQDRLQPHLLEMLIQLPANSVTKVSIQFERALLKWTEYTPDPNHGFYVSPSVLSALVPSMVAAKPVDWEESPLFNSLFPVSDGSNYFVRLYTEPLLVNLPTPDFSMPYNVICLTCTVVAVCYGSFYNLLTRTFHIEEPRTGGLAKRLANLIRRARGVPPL
UniProt Q96JB2: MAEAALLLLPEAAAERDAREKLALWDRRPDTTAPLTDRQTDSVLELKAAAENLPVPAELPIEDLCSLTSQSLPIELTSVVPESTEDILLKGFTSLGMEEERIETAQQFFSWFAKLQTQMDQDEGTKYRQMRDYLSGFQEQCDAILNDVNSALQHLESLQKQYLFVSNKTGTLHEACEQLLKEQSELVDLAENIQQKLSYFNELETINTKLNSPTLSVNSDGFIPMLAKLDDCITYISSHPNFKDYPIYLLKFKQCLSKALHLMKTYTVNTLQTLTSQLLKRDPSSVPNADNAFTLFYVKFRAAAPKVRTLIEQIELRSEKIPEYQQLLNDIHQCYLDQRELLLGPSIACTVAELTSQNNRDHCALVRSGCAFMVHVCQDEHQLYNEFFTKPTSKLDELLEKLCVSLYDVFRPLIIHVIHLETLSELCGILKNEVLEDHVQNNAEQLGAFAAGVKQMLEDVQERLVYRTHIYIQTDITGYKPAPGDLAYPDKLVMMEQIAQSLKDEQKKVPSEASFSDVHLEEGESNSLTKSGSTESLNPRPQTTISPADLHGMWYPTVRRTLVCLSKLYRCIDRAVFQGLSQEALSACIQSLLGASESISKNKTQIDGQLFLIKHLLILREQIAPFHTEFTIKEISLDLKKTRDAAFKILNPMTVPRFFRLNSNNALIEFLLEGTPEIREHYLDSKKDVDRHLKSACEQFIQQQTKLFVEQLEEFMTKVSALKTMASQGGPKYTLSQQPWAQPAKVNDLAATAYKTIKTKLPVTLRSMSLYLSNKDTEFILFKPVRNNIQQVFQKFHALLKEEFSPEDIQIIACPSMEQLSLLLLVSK
UniProt Q96JM7: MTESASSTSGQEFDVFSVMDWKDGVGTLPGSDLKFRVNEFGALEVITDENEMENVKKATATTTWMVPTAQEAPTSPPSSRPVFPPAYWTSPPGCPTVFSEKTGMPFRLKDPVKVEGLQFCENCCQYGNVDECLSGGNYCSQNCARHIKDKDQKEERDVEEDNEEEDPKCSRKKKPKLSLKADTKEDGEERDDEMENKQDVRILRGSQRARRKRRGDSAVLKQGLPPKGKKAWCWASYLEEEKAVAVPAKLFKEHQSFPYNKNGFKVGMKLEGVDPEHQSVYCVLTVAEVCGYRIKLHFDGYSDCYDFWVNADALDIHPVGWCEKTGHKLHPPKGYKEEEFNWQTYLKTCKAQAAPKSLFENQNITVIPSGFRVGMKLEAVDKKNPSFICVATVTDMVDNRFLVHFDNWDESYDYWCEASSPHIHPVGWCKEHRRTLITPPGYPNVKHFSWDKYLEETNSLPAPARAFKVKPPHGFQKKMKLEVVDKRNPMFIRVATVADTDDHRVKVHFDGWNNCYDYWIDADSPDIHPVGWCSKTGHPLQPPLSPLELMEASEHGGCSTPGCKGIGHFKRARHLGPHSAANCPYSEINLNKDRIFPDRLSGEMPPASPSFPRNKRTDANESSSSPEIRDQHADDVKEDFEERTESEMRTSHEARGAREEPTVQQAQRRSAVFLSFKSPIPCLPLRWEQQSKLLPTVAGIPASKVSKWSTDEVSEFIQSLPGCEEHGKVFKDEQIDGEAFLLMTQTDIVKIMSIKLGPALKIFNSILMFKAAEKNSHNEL
UniProt Q92598: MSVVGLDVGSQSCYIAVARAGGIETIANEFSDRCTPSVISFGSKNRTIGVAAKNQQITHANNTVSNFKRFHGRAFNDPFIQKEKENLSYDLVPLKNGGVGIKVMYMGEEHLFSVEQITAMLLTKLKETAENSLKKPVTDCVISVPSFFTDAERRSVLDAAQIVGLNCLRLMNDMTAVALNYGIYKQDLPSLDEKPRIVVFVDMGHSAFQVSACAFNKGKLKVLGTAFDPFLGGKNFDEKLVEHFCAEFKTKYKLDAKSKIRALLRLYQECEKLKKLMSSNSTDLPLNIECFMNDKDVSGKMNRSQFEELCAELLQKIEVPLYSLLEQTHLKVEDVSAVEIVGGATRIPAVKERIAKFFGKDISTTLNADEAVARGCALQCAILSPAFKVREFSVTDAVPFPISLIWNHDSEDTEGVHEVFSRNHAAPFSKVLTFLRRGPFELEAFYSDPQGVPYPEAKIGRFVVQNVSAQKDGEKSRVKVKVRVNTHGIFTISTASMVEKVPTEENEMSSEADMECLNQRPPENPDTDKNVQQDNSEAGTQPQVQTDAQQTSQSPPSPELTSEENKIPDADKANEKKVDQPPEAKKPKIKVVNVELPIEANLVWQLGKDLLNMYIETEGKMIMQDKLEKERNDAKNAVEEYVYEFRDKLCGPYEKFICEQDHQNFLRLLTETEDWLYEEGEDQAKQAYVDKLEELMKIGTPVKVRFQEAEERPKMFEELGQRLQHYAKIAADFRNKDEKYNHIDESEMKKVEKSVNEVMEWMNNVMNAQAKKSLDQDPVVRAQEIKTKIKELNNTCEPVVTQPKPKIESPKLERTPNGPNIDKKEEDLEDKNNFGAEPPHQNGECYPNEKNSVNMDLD

For UniProt Q96HE7, the NP40-soluble protein abundance (concentration: 0.1mM) was 0.994 ± 0.011, the NP40-soluble protein abundance (concentration: 0.5mM) was 0.977 ± 0.021 and the NP40-soluble protein abundance (concentration: 1mM) was 0.955 ± 0.018. It also gave an NP40-soluble protein abundance (concentration: 2mM) of 0.94 ± 0.04, an NP40-soluble protein abundance (concentration: 4mM) of 0.898 ± 0.059 and an NP40-soluble protein abundance (concentration: 6mM) of 0.906 ± 0.048. It also gave an NP40-soluble protein abundance (concentration: 8mM) of 0.893 ± 0.054 and an NP40-soluble protein abundance (concentration: 10mM) of 0.874 ± 0.066.

Target PAWR (UniProt Q96IZ0) has an NP40-soluble protein abundance (concentration: 0.1mM) of 0.88 ± 0.064, an NP40-soluble protein abundance (concentration: 0.5mM) of 0.8149 ± 0.0025 and an NP40-soluble protein abundance (concentration: 1mM) of 0.9512 ± 0.006. For the same target, the NP40-soluble protein abundance (concentration: 2mM) was 0.916 ± 0.016, the NP40-soluble protein abundance (concentration: 4mM) was 0.876 ± 0.017 and the NP40-soluble protein abundance (concentration: 6mM) was 0.868 ± 0.031. For the same target, the NP40-soluble protein abundance (concentration: 8mM) was 0.916 ± 0.036 and the NP40-soluble protein abundance (concentration: 10mM) was 0.949 ± 0.029.

TOE1 (UniProt Q96GM8) gave an NP40-soluble protein abundance (concentration: 0.1mM) of 1.06 ± 0.11, an NP40-soluble protein abundance (concentration: 0.5mM) of 1.018 ± 0.0096 and an NP40-soluble protein abundance (concentration: 1mM) of 1.09 ± 0.12. For the same target, the NP40-soluble protein abundance (concentration: 2mM) was 1.14 ± 0.049, the NP40-soluble protein abundance (concentration: 4mM) was 1.24 ± 0.097 and the NP40-soluble protein abundance (concentration: 6mM) was 1.33 ± 0.052. The NP40-soluble protein abundance (concentration: 8mM) was 1.42 ± 0.11 and the NP40-soluble protein abundance (concentration: 10mM) was 1.65 ± 0.1.

Work on PHIP (UniProt Q8WWQ0) yielded an NP40-soluble protein abundance (concentration: 0.1mM) of 1.02 ± 0.06, an NP40-soluble protein abundance (concentration: 0.5mM) of 1.05 ± 0.037 and an NP40-soluble protein abundance (concentration: 1mM) of 1.11 ± 0.053. The NP40-soluble protein abundance (concentration: 2mM) was 1.11 ± 0.014, the NP40-soluble protein abundance (concentration: 4mM) was 1.15 ± 0.086 and the NP40-soluble protein abundance (concentration: 6mM) was 1.14 ± 0.035. It also gave an NP40-soluble protein abundance (concentration: 8mM) of 1.19 ± 0.062 and an NP40-soluble protein abundance (concentration: 10mM) of 1.23 ± 0.15.

In the case of UniProt Q969H8, the NP40-soluble protein abundance (concentration: 0.1mM) is reported as 0.971 ± 0.023, the NP40-soluble protein abundance (concentration: 0.5mM) is reported as 0.949 ± 0.034 and the NP40-soluble protein abundance (concentration: 1mM) is reported as 0.884 ± 0.026. For the same target, the NP40-soluble protein abundance (concentration: 2mM) was 0.85 ± 0.019, the NP40-soluble protein abundance (concentration: 4mM) was 0.834 ± 0.05 and the NP40-soluble protein abundance (concentration: 6mM) was 0.853 ± 0.057. The NP40-soluble protein abundance (concentration: 8mM) was 0.8 ± 0.046 and the NP40-soluble protein abundance (concentration: 10mM) was 0.764 ± 0.085.

Work on CREBBP (UniProt Q92793) yielded an NP40-soluble protein abundance (concentration: 0.1mM) of 1.1 ± 0.09, an NP40-soluble protein abundance (concentration: 0.5mM) of 1.08 ± 0.043 and an NP40-soluble protein abundance (concentration: 1mM) of 1.052 ± 0.0086. It also gave an NP40-soluble protein abundance (concentration: 2mM) of 1.03 ± 0.2, an NP40-soluble protein abundance (concentration: 4mM) of 1.06 ± 0.086 and an NP40-soluble protein abundance (concentration: 6mM) of 0.998 ± 0.059. For the same target, the NP40-soluble protein abundance (concentration: 8mM) was 1.09 ± 0.025 and the NP40-soluble protein abundance (concentration: 10mM) was 0.995 ± 0.097.

Work on DCPS (UniProt Q96C86) yielded an NP40-soluble protein abundance (concentration: 0.1mM) of 0.983 ± 0.019, an NP40-soluble protein abundance (concentration: 0.5mM) of 1.01 ± 0.0029 and an NP40-soluble protein abundance (concentration: 1mM) of 0.922 ± 0.045. It also gave an NP40-soluble protein abundance (concentration: 2mM) of 0.908 ± 0.046, an NP40-soluble protein abundance (concentration: 4mM) of 0.878 ± 0.056 and an NP40-soluble protein abundance (concentration: 6mM) of 0.889 ± 0.063. For the same target, the NP40-soluble protein abundance (concentration: 8mM) was 0.868 ± 0.053 and the NP40-soluble protein abundance (concentration: 10mM) was 0.857 ± 0.076.

Target UniProt Q969N2 and related entries has an NP40-soluble protein abundance (concentration: 0.1mM) of 1.07 ± 0.075, an NP40-soluble protein abundance (concentration: 0.5mM) of 1.08 ± 0.13 and an NP40-soluble protein abundance (concentration: 1mM) of 0.948 ± 0.12. It also gave an NP40-soluble protein abundance (concentration: 2mM) of 1 ± 0.1, an NP40-soluble protein abundance (concentration: 4mM) of 0.953 ± 0.078 and an NP40-soluble protein abundance (concentration: 6mM) of 0.982 ± 0.14. For the same target, the NP40-soluble protein abundance (concentration: 8mM) was 0.92 ± 0.059 and the NP40-soluble protein abundance (concentration: 10mM) was 0.941 ± 0.031.

COG3 (UniProt Q96JB2) showed an NP40-soluble protein abundance (concentration: 0.1mM) of 1.03 ± 0.052, an NP40-soluble protein abundance (concentration: 0.5mM) of 1.07 ± 0.04 and an NP40-soluble protein abundance (concentration: 1mM) of 1.036 ± 0.0053. The NP40-soluble protein abundance (concentration: 2mM) was 1.04 ± 0.07, the NP40-soluble protein abundance (concentration: 4mM) was 1.08 ± 0.088 and the NP40-soluble protein abundance (concentration: 6mM) was 1.06 ± 0.075. For the same target, the NP40-soluble protein abundance (concentration: 8mM) was 1.06 ± 0.057 and the NP40-soluble protein abundance (concentration: 10mM) was 1.05 ± 0.056.

In the case of UniProt Q96D71-3|Q96D71, the NP40-soluble protein abundance (concentration: 0.1mM) is reported as 0.912 ± 0.034, the NP40-soluble protein abundance (concentration: 0.5mM) is reported as 0.932 ± 0.061 and the NP40-soluble protein abundance (concentration: 1mM) is reported as 0.973 ± 0.047. For the same target, the NP40-soluble protein abundance (concentration: 2mM) was 0.89 ± 0.05, the NP40-soluble protein abundance (concentration: 4mM) was 0.924 ± 0.023 and the NP40-soluble protein abundance (concentration: 6mM) was 0.955 ± 0.022. It also gave an NP40-soluble protein abundance (concentration: 8mM) of 1.03 ± 0.053 and an NP40-soluble protein abundance (concentration: 10mM) of 1.05 ± 0.12.

UniProt Q96JM7 and related entries gave an NP40-soluble protein abundance (concentration: 0.1mM) of 1.13 ± 0.15, an NP40-soluble protein abundance (concentration: 0.5mM) of 1.14 ± 0.016 and an NP40-soluble protein abundance (concentration: 1mM) of 1.08 ± 0.16. It also gave an NP40-soluble protein abundance (concentration: 2mM) of 1.13 ± 0.078, an NP40-soluble protein abundance (concentration: 4mM) of 1.1 ± 0.2 and an NP40-soluble protein abundance (concentration: 6mM) of 1.23 ± 0.031. For the same target, the NP40-soluble protein abundance (concentration: 8mM) was 1.11 ± 0.056 and the NP40-soluble protein abundance (concentration: 10mM) was 1.15 ± 0.073.

UniProt Q92598 and related entries was tested, and the NP40-soluble protein abundance (concentration: 0.1mM) was 0.955 ± 0.058, the NP40-soluble protein abundance (concentration: 0.5mM) was 0.974 ± 0.057 and the NP40-soluble protein abundance (concentration: 1mM) was 0.984 ± 0.06. It also gave an NP40-soluble protein abundance (concentration: 2mM) of 0.934 ± 0.074, an NP40-soluble protein abundance (concentration: 4mM) of 0.932 ± 0.064 and an NP40-soluble protein abundance (concentration: 6mM) of 0.929 ± 0.058. It also gave an NP40-soluble protein abundance (concentration: 8mM) of 0.951 ± 0.059 and an NP40-soluble protein abundance (concentration: 10mM) of 0.945 ± 0.074.

— the supplement of paper PMC6411743
